For some assays here: The comparison behind a weaker result is the experiment's own reference, which may not be listed here. Where a protein sequence is shown, tags need not be part of it. For some assays here: The exact form of at least one protein or probe is not confirmed.
Legend:
[1] = target: T1, REF6 ZnF1-4 WT (Arabidopsis thaliana) (UniProt Q9STM3); experiment: MST; details: MST: 20 mM HEPES pH 7.3, 150 mM NaCl, 0.2 mM TCEP, 0.5% CA-630, 25 C; recombinant protein; residues 1223-1360; label: FAM
T1 sequence (looked up): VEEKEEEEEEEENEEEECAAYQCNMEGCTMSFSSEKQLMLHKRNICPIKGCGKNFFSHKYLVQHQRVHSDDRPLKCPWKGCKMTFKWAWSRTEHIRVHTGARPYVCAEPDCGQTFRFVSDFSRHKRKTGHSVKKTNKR

[2] = target: T1, REF6 ZnF1-4 WT (Arabidopsis thaliana); experiment: EMSA; details: methylcytosine at position 9 of strand 2 (9'C); EMSA: 30 uM protein, 10 uM dsDNA, 20 mM Tris pH 8.0, 100 mM NaCl, 2.5 mM MgCl2, 0.1% CA-630, 10% glycerol, 1 uM ZnSO4, 1 mM DTT, 4 C; recombinant protein; residues 1223-1360; label: FAM in MST

Sequence	Kd [1] [µM]	binding result [2]
TTCTCTGTTT (double strand) [NAC004 10-bp]	483	–
CTTTCTCTGTTTTGTC / GGACAAAACAGAGAAA [m5-m9'C]	–	binds more weakly

From paper PMC7105484, “Crystal structures of REF6 and its complex with DNA reveal diverse recognition mechanisms” (Cell Discovery, 2020)
